Laboratory results published in patent publication US12303594B2, “Antimicrobial and anti-inflammatory compositions” (The Texas A&M University System, priority 2015, dated 2025).
Some entries share one result that the patent states for a list of compounds.

Tested on: Pseudomonas aeruginosa (strain PA HP3)
Assay: Checkerboard assay with ibuprofen
Format: cell-based
Details: combination with ibuprofen; <1 synergistic

| Compound | FIC index |
| --- | --- |
| C[C@H]1[C@H](NC(=O)/C(=N\OC(C)(C)C(=O)O)c2csc(N)n2)C(=O)N1S(=O)(=O)O [Aztreonam, aztreonam] | < 1 |
| CC(C)(O/N=C(\C(=O)N[C@@H]1C(=O)N2C(C(=O)[O-])=C(C[n+]3ccccc3)CS[C@H]12)c1csc(N)n1)C(=O)O [Ceftazidime, ceftazidime] | < 1 |
